# This is one part of the list.
# The chains behind the UniProt entries cited, without tags or fusion partners. Where a name states a change or a piece, a line headed by the entry shows the natural chain unless it says otherwise.
# UniProt O15355: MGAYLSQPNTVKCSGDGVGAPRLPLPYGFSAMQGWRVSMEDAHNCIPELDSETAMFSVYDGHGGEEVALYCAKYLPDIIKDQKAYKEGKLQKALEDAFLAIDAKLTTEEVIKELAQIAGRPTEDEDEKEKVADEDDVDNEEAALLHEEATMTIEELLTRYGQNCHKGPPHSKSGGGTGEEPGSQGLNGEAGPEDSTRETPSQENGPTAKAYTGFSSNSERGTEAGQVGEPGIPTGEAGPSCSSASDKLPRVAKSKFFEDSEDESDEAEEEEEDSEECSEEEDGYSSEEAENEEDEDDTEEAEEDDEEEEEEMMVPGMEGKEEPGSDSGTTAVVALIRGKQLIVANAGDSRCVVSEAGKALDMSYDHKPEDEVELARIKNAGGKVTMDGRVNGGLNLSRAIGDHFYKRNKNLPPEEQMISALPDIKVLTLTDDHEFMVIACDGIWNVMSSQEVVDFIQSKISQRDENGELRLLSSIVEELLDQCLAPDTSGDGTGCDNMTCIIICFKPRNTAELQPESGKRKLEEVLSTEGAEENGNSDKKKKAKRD
# UniProt Q96C90: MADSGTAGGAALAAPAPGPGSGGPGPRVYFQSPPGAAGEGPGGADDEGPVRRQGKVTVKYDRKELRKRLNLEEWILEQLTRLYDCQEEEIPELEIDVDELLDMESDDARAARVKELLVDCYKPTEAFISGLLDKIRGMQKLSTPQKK
# UniProt K7ELL7: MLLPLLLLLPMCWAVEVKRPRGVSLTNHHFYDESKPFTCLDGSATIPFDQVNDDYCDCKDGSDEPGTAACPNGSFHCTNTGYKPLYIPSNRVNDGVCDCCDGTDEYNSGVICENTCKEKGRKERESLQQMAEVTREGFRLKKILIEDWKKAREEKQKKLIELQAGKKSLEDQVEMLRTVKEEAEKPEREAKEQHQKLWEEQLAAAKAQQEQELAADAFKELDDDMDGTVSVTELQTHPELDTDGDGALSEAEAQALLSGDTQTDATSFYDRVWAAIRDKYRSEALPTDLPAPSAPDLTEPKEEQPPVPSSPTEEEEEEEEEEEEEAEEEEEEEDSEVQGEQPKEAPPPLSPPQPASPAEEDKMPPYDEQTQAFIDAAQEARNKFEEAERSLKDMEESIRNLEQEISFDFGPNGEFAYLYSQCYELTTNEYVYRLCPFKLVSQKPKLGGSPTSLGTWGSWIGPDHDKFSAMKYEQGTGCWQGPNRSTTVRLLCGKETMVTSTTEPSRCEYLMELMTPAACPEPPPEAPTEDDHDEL
# UniProt Q04759: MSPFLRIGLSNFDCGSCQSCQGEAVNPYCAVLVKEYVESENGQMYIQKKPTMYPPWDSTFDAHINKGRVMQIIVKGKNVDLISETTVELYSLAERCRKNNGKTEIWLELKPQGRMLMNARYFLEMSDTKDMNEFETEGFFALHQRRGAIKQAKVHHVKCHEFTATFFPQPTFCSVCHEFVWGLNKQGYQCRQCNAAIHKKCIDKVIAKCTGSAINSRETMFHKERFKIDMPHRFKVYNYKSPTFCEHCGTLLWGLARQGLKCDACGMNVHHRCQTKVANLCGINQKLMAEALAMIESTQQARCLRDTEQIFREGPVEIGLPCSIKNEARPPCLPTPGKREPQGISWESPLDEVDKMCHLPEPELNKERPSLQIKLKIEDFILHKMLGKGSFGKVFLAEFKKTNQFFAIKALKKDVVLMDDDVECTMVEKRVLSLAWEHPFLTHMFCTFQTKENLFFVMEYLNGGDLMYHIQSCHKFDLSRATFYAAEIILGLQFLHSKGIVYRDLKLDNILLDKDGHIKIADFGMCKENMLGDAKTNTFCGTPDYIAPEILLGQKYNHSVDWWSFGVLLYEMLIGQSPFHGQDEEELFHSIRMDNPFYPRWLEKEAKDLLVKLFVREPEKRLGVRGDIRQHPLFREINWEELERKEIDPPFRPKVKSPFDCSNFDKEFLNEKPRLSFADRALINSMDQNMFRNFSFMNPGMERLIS
# UniProt P31323, whole entry, looked up: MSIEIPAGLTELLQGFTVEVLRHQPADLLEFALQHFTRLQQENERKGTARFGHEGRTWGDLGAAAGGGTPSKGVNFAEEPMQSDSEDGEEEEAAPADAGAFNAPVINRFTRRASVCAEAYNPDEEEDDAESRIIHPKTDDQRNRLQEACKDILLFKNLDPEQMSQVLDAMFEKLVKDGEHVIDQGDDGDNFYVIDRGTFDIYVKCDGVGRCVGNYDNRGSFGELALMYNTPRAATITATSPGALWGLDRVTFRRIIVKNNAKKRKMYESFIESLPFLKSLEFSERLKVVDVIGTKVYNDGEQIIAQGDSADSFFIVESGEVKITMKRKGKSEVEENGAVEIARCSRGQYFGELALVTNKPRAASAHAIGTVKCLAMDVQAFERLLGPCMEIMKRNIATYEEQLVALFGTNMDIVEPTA
# UniProt Q13523: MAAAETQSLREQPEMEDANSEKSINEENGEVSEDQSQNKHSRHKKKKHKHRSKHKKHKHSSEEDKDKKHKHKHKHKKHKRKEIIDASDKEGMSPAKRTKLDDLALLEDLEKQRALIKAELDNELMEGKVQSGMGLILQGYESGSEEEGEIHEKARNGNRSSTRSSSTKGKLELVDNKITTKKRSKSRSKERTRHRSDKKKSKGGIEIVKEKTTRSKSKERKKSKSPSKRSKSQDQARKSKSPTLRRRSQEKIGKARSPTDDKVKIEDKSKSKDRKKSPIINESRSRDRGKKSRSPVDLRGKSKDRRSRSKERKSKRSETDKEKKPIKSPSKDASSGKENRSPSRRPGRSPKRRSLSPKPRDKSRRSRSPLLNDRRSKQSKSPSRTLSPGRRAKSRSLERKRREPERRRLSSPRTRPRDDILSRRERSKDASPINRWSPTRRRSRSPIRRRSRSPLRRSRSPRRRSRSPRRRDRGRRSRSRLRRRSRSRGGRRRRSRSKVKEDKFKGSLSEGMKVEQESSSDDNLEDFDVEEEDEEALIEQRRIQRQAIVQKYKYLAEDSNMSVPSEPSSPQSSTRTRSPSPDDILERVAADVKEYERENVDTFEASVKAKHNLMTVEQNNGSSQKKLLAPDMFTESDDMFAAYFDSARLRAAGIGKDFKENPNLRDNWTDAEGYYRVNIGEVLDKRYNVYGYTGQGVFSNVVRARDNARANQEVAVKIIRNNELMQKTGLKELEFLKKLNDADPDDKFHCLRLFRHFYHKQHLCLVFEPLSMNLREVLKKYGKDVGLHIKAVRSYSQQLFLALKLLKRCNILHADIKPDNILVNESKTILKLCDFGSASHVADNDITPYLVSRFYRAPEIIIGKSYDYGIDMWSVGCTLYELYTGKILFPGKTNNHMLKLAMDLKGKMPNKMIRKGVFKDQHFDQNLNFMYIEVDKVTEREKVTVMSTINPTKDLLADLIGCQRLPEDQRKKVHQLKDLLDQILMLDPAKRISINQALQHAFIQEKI
# UniProt Q02156: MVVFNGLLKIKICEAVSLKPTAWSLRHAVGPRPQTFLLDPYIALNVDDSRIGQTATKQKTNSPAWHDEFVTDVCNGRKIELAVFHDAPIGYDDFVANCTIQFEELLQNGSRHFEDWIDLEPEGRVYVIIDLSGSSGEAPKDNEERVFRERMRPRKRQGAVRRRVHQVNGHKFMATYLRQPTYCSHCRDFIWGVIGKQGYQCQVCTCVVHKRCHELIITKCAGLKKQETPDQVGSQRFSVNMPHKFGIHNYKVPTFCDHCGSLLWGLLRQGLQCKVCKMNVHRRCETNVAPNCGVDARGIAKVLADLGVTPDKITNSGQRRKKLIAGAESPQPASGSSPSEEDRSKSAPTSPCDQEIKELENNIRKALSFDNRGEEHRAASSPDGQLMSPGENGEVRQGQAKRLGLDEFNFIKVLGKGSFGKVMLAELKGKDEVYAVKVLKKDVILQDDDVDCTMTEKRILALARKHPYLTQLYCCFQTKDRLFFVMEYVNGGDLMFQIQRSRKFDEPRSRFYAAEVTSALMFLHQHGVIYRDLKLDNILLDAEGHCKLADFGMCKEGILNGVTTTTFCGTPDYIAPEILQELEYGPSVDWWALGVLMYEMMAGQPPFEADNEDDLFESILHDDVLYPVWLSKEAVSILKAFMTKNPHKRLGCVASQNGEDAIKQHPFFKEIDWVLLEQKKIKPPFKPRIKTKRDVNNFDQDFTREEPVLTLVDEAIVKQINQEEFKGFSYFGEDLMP
# UniProt O75569: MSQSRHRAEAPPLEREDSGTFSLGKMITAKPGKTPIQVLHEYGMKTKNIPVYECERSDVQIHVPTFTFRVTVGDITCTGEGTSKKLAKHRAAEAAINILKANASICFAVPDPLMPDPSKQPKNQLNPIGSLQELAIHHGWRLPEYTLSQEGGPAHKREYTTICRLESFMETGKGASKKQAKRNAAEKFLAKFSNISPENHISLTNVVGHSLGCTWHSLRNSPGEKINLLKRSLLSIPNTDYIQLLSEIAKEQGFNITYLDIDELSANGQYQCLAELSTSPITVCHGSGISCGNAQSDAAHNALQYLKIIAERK
# UniProt Q8WUF5: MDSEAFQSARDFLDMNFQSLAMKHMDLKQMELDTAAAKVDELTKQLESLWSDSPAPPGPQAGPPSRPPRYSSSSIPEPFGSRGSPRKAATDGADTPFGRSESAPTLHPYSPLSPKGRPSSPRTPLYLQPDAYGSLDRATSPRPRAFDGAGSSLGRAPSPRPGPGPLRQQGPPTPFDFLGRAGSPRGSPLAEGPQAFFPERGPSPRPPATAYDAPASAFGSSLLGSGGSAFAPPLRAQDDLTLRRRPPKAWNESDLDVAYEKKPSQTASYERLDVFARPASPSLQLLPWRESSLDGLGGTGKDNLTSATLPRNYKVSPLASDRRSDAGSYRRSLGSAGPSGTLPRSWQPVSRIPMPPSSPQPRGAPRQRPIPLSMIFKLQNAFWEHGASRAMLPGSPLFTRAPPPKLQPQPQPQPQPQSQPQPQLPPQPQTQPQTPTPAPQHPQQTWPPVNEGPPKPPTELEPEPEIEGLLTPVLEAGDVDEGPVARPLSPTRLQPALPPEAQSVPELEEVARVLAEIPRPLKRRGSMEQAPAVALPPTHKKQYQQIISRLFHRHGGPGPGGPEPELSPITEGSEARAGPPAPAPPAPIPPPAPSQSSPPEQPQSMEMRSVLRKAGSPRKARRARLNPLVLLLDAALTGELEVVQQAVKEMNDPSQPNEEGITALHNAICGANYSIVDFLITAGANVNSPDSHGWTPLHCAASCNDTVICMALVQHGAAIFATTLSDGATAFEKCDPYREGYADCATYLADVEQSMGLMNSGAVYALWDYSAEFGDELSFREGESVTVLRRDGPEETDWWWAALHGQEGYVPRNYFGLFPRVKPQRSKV
# UniProt P49643: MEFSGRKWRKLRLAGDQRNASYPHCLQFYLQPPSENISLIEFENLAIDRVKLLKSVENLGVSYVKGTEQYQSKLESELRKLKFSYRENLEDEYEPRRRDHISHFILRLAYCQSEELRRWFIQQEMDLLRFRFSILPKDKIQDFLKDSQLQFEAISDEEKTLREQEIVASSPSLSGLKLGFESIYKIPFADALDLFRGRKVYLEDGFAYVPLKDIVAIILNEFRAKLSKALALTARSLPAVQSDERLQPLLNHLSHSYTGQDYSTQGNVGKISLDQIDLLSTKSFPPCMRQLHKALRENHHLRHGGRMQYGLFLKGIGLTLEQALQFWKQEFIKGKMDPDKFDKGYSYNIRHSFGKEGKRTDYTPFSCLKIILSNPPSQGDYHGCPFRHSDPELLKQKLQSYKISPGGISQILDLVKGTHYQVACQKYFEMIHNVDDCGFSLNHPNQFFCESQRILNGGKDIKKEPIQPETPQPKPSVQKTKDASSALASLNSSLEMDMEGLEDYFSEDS
# UniProt Q9NVM4: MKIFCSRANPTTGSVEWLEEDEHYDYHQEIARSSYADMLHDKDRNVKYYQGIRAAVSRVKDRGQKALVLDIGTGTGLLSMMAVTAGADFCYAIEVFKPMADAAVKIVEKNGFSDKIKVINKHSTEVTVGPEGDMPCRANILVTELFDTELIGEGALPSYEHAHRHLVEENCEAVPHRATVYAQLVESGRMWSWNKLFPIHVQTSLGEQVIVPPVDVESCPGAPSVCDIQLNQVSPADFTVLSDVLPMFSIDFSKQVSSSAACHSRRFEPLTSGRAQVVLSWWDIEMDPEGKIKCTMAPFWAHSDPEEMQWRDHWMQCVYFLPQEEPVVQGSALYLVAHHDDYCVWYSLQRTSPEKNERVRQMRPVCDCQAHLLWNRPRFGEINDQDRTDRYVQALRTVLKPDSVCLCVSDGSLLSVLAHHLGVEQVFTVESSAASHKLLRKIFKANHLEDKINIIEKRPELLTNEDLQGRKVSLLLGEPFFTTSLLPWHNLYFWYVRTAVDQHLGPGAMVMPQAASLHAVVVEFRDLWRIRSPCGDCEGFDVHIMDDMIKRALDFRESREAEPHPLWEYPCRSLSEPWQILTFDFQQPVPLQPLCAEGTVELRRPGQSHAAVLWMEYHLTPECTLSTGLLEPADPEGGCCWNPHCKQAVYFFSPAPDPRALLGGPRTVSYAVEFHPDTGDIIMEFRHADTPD
# How the values were obtained:
# Experiment in all cases: log2 fold change, soluble protein after heating vs DMSO (PISA); higher = thermal stabilisation; K562 cells, 10 uM, 30 min; active = over 0.2 and 3.5 SD of the protein, either way, in both replicates (recomputed)
# [1] = compound: CC[C@@H]1C(=O)N(C)c2cnc(Nc3ccc(C(=O)NC4CCN(C)CC4)cc3OC)nc2N1C1CCCC1
# In short: (§1)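 Values are thermal stability changes relative to control samples and are taken from duplicates. They are stated as log2 fold changes. Before quantification by TMTpro 16plex LC-MS/MS with equalised channel sums, K562 cells at 2×10^6 cells/mL were treated with 10 μM compound for 30 min, heated in aliquots for 3 min across 48°C-58°C, pooled, extracted in PBS with 0.5% NP-40 at 4°C, and centrifuged at 21,000xg for 90 min to give the soluble supernatant.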
# [2] = compound: CC[C@@H]1C(=O)N(C)c2cnc(Nc3ccc(C(=O)N[C@H]4CC[C@H](N5CCN(CC6CC6)CC5)CC4)cc3OC)nc2N1C(C)C [volasertib]
# In short: as §1
# [3] = compound: CC[C@H](C)N1C=C(C2=C(C=C(C=C21)C3=CN=C(C=C3)N4CCNCC4)C(=O)NCC5=C(C=C(NC5=O)C)C)C
# In short: as §1
# [4] = compound: CC[C@H](C)[C@@H](C(=O)N[C@@H]([C@@H](C)O)C(=O)N[C@@H](CC(C)C)C(=O)[C@]1(CO1)C)NC(=O)[C@H]([C@@H](C)CC)N(C)C(=O)C [epoxomicin]
# In short: as §1
# [5] = compound: CCn1c(C(=O)N(C2CC2)C2CC2)cc2c3c(ncn3C)c(Nc3cc(C)n(C)n3)nc21
# In short: as §1
# [6] = compound: CCn1cc(-c2ccnc3[nH]c(-c4cccc(CN(C)C)c4)cc23)c(-c2ccc(NC(=O)N(C)C)cc2)n1
# In short: as §1
# [7] = compound: CN(C)CC(=O)Nc1ccc2[nH]c(=O)c3ccccc3c2c1
# In short: as §1
# [8] = compound: CN(CCOC1=CC=C(C=C1)C[C@H]2C(=O)NC(=O)S2)C3=CC=CC=N3 (racemic) [rosiglitazone]
# In short: as §1
# [9] = compound: CN1C2=C(C3=C1C(=O)N(N=C3)CC4=CC(=CC=C4)N)SC(=C2)S(=O)C
# In short: as §1
# [10] = compound: CN1CCC(CNc2ccc3ncc(-c4cccc(OC(F)(F)F)c4)n3n2)CC1
# In short: as §1
# [11] = compound: CN1CCN(CCOc2cc(OC3CCOCC3)c3c(Nc4c(Cl)ccc5c4OCO5)ncnc3c2)CC1 [saracatinib]
# In short: as §1
# [12] = compound: CN1CCN(c2nc(C3=C(c4c[nH]c5ccccc45)C(=O)NC3=O)c3ccccc3n2)CC1 [sotrastaurin]
# In short: as §1
# [13] = compound: CN1CC[C@H](c2c(O)cc(O)c3c(=O)cc(-c4ccccc4Cl)oc23)[C@H](O)C1 [alvocidib]
# In short: as §1
# [14] = compound: CN1CCc2c(c3ccccc3n2Cc2ccc(C(=O)NO)cc2)C1 [Tubastatin A]
# In short: as §1
# [15] = compound: CNC(=O)C1=CC=CC=C1NC2=NC(=NC=C2Cl)NC3=C(C=C(C=C3)N4CCOCC4)OC
# In short: as §1
# [16] = compound: CNC(=O)c1ccc(Nc2ncc(C(F)(F)F)c(NCc3nccnc3N(C)S(C)(=O)=O)n2)cc1 [defactinib]
# In short: as §1
# [17] = compound: CNCc1ccc(-c2[nH]c3cc(F)cc4c3c2CCNC4=O)cc1 [rucaparib]
# In short: as §1
# [18] = compound: CNc1nc(-c2ccc3c(N)n[nH]c3c2)cc(N2C[C@@H](C(=O)NC3CCCCC3)CC[C@H]2C)n1
# In short: as §1
# [19] = compound: COC(=O)N[C@@H](C)CNc1nccc(-c2cn(C(C)C)nc2-c2cc(Cl)cc(NS(C)(=O)=O)c2F)n1 [encorafenib]
# In short: as §1
# [20] = compound: COC(=O)[C@H](CCSC)NC(=O)C1=C(C=C(C=C1)NC[C@H](CS)N)C2=CC=CC=C2
# In short: as §1
Target,log2 fold change [1],log2 fold change [2],log2 fold change [3],log2 fold change [4],log2 fold change [5],log2 fold change [6],log2 fold change [7],log2 fold change [8],log2 fold change [9],log2 fold change [10],log2 fold change [11],log2 fold change [12],log2 fold change [13],log2 fold change [14],log2 fold change [15],log2 fold change [16],log2 fold change [17],log2 fold change [18],log2 fold change [19],log2 fold change [20]
PRKDC (UniProt P78527),inactive: -0.088,inactive: -0.178,inactive: 0.04,inactive: 0.054,inactive: -0.008,inactive: -0.037,inactive: 0.025,inactive: 0.027,inactive: -0.073,inactive: -0.059,inactive: 0.008,inactive: 0.006,inactive: -0.07,inactive: -0.021,inactive: 0.002,inactive: -0.057,inactive: -0.019,inactive: -0.004,inactive: 0.039,inactive: -0.023
PPM1G (UniProt O15355),inactive: -0.208,active: -0.381,inactive: 0.066,inactive: 0.087,–,inactive: -0.073,inactive: 0.098,–,inactive: 0.017,inactive: -0.025,inactive: -0.086,inactive: -0.213,–,inactive: 0.187,inactive: 0.108,inactive: -0.226,inactive: -0.088,inactive: -0.038,inactive: 0.085,inactive: -0.104
PPP1R14B (UniProt Q96C90),inactive: -0.1,inactive: 0.063,inactive: 0.023,inactive: -0.072,inactive: 0.009,–,inactive: 0.053,inactive: -0.008,inactive: -0.06,–,inactive: 0.185,inactive: 0.103,inactive: -0.069,inactive: 0.16,inactive: -0.072,inactive: -0.011,inactive: -0.127,inactive: 0.34,inactive: 0.101,inactive: -0.06
PRKCB isoform 2 (UniProt P05771),inactive: -0.068,active: -0.213,inactive: 0.04,inactive: 0.03,–,inactive: -0.06,inactive: 0.006,–,inactive: -0.054,inactive: -0.135,inactive: -0.006,active: -0.343,–,inactive: -0.004,inactive: 0.012,inactive: -0.03,inactive: 0.001,inactive: -0.03,inactive: 0.031,inactive: -0.001
PRKACA (UniProt P17612),inactive: -0.028,inactive: -0.046,inactive: 0.068,inactive: -0.072,–,inactive: -0.058,inactive: 0,–,inactive: -0.003,inactive: 0.085,inactive: 0.002,inactive: -0.117,–,inactive: 0.054,inactive: -0.104,inactive: -0.015,inactive: 0.061,inactive: 0.077,inactive: 0.01,inactive: 0.072
PRKCSH (UniProt K7ELL7),inactive: 0.084,inactive: 0.051,inactive: 0.008,inactive: -0.018,inactive: 0.031,–,inactive: -0.123,inactive: -0.015,inactive: 0.015,–,inactive: 0.19,inactive: -0.007,inactive: -0.064,inactive: 0.105,inactive: -0.068,inactive: 0.014,inactive: -0.038,inactive: 0.012,inactive: 0,inactive: 0.089
PRKCQ (UniProt Q04759),inactive: -0.11,inactive: -0.17,inactive: 0.031,inactive: 0.001,–,inactive: -0.047,inactive: 0.021,–,inactive: -0.014,active: -0.496,inactive: -0.034,active: -0.903,–,inactive: 0.017,inactive: -0.047,inactive: -0.03,inactive: 0.003,inactive: 0.002,inactive: 0.043,inactive: -0.025
PRKAR2B (UniProt P31323),inactive: -0.037,inactive: 0.053,inactive: 0.056,inactive: 0.025,–,inactive: -0.023,inactive: -0.008,–,inactive: 0.005,active: -0.495,inactive: -0.024,active: -0.486,–,inactive: 0.02,inactive: -0.168,inactive: -0.191,inactive: 0.086,inactive: 0.014,inactive: 0.069,inactive: -0.004
PRPF4B (UniProt Q13523),inactive: 0.025,inactive: -0.17,inactive: 0.027,inactive: -0.174,–,inactive: 0.104,inactive: -0.049,–,inactive: 0.081,inactive: 0.019,inactive: -0.064,inactive: -0.047,–,inactive: 0.085,inactive: -0.209,inactive: -0.32,inactive: 0.022,inactive: -0.146,inactive: 0.02,inactive: 0.046
PRKCE (UniProt Q02156),inactive: -0.051,inactive: -0.125,inactive: 0.099,inactive: 0.036,–,inactive: -0.067,inactive: 0.036,–,inactive: -0.106,inactive: -0.16,inactive: -0.02,active: -0.425,–,inactive: -0.052,inactive: 0.075,inactive: -0.133,inactive: -0.043,inactive: 0.006,inactive: 0.037,inactive: -0.06
PRMT6 (UniProt Q96LA8),inactive: -0.01,inactive: -0.015,inactive: 0.028,inactive: -0.032,inactive: 0.005,inactive: -0.016,inactive: 0.06,inactive: 0.102,inactive: -0.255,inactive: 0.054,inactive: 0.034,–,inactive: -0.038,inactive: 0.001,inactive: -0.001,inactive: 0.05,inactive: -0.012,inactive: 0.008,inactive: 0.041,inactive: -0.152
PRPF3 (UniProt O43395),inactive: -0.114,active: -0.34,inactive: 0.069,inactive: 0.069,–,inactive: -0.062,inactive: 0.116,–,inactive: 0.004,inactive: -0.17,inactive: -0.023,inactive: -0.114,–,inactive: 0.07,inactive: -0.021,inactive: -0.239,inactive: -0.041,inactive: -0.001,inactive: 0.171,inactive: -0.025
PRKRA (UniProt O75569),inactive: 0.167,inactive: 0.016,inactive: -0.072,inactive: -0.224,–,inactive: 0.214,inactive: -0.104,inactive: 0.075,inactive: 0.286,inactive: 0.107,inactive: -0.149,inactive: -0.118,inactive: 0.245,inactive: 0.125,–,inactive: 0.073,inactive: 0.473,inactive: 0.041,inactive: 0.164,inactive: -0.061
PPP1R13L (UniProt Q8WUF5),inactive: -0.022,inactive: -0.06,inactive: 0.069,inactive: -0.376,–,inactive: 0.047,inactive: -0.02,inactive: 0.099,–,inactive: 0.146,–,–,–,inactive: -0.022,–,inactive: -0.126,inactive: -0.107,–,inactive: 0.039,inactive: -0.135
PRSS21 (UniProt Q9Y6M0),inactive: 0.005,inactive: -0.02,inactive: 0,inactive: -0.01,inactive: -0.03,inactive: -0.003,inactive: -0.051,inactive: -0.004,inactive: -0.041,inactive: 0.066,inactive: -0.067,inactive: 0.03,inactive: -0.057,inactive: 0.049,inactive: 0.013,inactive: 0.048,inactive: 0.008,inactive: 0.021,inactive: 0.048,inactive: -0.002
PRIM2 (UniProt P49643),inactive: -0.119,active: -0.285,inactive: 0.147,inactive: 0.02,–,inactive: -0.07,inactive: 0.076,–,inactive: 0.013,inactive: -0.131,inactive: -0.013,inactive: -0.192,–,inactive: 0.024,inactive: 0.009,inactive: -0.127,inactive: 0.001,inactive: 0.018,inactive: 0.052,inactive: -0.055
PRMT7 (UniProt Q9NVM4),inactive: -0.074,active: -0.461,inactive: 0.04,inactive: -0.036,–,inactive: -0.077,inactive: 0.032,–,inactive: 0.022,inactive: -0.176,inactive: -0.02,inactive: -0.124,–,inactive: 0.088,inactive: 0.004,inactive: -0.086,inactive: 0.008,inactive: 0.031,inactive: 0.112,inactive: -0.04
PPWD1 (UniProt Q96BP3),inactive: 0.017,inactive: -0.026,inactive: 0.018,inactive: 0.003,inactive: -0.005,inactive: -0.037,inactive: 0.043,inactive: 0.047,inactive: -0.09,inactive: -0.024,inactive: 0.004,inactive: -0.027,inactive: -0.022,inactive: -0.017,inactive: 0.01,inactive: 0.01,inactive: -0.041,inactive: 0.037,inactive: 0.004,inactive: -0.014

# Individual results from the list:
# Entry for PRKCE (UniProt Q02156) under log2 fold change [11]: inactive: -0.02
# Entry for PRPF3 (UniProt O43395) under log2 fold change [18]: inactive: -0.001
